## Library screening results

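Whole-cell assay for inhibitors of Mycobacterium tuberculosis growth, labelled Cornell in the record; the read-out is not stated. The concentration is filed as 10 mM, unlikely as a test dose, so the dose is not known. Higher means stronger inhibition (inferred from two other growth screens of the library). Of about 53,000 compounds tested this way, about 900 (1.7%) reached 50% or more in at least one test.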

Values are the deposited “Percent Effect”, in %. The controls that fix the scale are not given in the record; negative values are as filed. The compounds are a random part of those screened.

structure,effect
O=C(CNC(=O)c1cnccn1)Nc1ncc[nH]1,1.412
Cc1n[nH]c(C)c1CNC(=O)NC1CCCCC1,15.12
COCCN1CCOCC12CCN(c1cnccn1)CC2.O=C(O)C(F)(F)F,-1.733
Cc1ccccc1CCNC(=O)CN1CCCC(Cn2cncn2)C1 (centres unmarked),-31.65
COC(=O)C1CN(Cc2ccc(-c3ccncc3)cc2F)C[C@@H](C)O1 (some centres unmarked),-10.26
COCCC(=O)N1CCC(NC(=O)c2cscc2C)CC1,-0.1867
CN(C)CCN1CCC(CNCc2c[nH]nc2C(C)(C)C)CC1,-58.26
CCc1nnc2n1CCN(C(=O)c1ccccc1OCC1CC1)C2,-13.6
CNS(=O)(=O)CCCN1CCN(C(C)c2cccnc2)CC1 (centres unmarked),-27.57
O=C(N1CCCC1)N1CCCC(c2nccn2Cc2ccncc2)C1 (centres unmarked),12.29
CC(C)C(=O)NC(Cc1cc(N(C)C)nc(C2CC2)n1)c1ccccc1 (centres unmarked),42.14
CC(=O)N1CCN(C(=O)NCc2ccc(Cl)s2)CC1,-43.66
Cc1csc(CN(C)C(=O)C2CCC(=O)N(CCN(C)C)C2)n1 (centres unmarked),8.468
O=C(NCC(O)(c1ccco1)C1CC1)c1c(F)cccc1Cl (centres unmarked),18.49
COCC1CC2(CCN(C(=O)c3occc3C)CC2)CO1 (centres unmarked),28.44
O=C(c1ccoc1)N1CCc2c(COCc3ccncc3)cncc2C1,-7.009
[H][C@]12CN(CC3CC3)C(=O)[C@@]1([H])CN(c1ncccn1)C2,13.87
COc1ccccc1N1CCC(CNCc2cccc(C#N)c2)C1 (centres unmarked),33.02
c1cnc(N2CCC(c3nccn3CC3CC3)CC2)nc1,-0.57
Clc1ccc2cccnc2c1CN1CCn2c(nnc2C2CC2)C1,-17.8
CS(=O)(=O)NC1CCN(c2cccc(F)c2C#N)CC1,23.45
O=C(O)C(F)(F)F.[H][C@@]12COC[C@]1([H])[C@@H](OCC1CCOCC1)CN2Cc1ccsc1,-10.37
Cc1cc(Cl)c2c(c1)C1(NC(=O)c3cccnc3N1)C(=O)N2 (centres unmarked),8.845
CC(C)(CNC(=O)C(C)(C)c1ccccc1F)C(N)=O,-1.469
CC(C)OC[C@H]1CCC[C@]12CN(S(=O)(=O)c1cccs1)CCO2,26.85
O=C(O)C(F)(F)F.O=C1N(c2ccsc2)CCC12CCCN(CC1CC1)C2 (centres unmarked),27.67
O=C(CO)N1CCC(c2ccnc(Nc3cc(C(F)(F)F)ccn3)n2)C1 (centres unmarked),-1.086
Cc1cc(C)n(-c2cc(N3CCN(C(=O)C(C)(C)C)CC3)nc(C)n2)n1,5.592
CC(C)(C)CC(=O)NCC(=O)Nc1ccn(Cc2ccncc2)n1,21.16
CNC(=O)COc1c(F)cc(Br)cc1C(C)=O,-40.69
CC(C)(C)C(=O)NCCC(=O)N1CCC(Nc2cccnn2)CC1,-6.85
[H][C@@]12CN(Cc3cc(C)cc(C)c3)C[C@]1([H])OCCN2S(=O)(=O)N(C)C,10.46
COc1ccc([C@@H]2CN(C(=O)CS(C)(=O)=O)C[C@H]2NC(C)=O)cc1,9.502
Cc1nn(-c2ccc(C(=O)O)cc2)c2c1C(CC(C)C)SCC(=O)N2 (centres unmarked),18.77
CCCc1noc(-c2ccc(-n3ncc(C(=O)O)c3C)nc2)n1,1.53
CCCn1nc2c(cc1=O)CN(CC(=O)N(C)c1nccs1)CC2,-0.3501
CC(C)n1c(=O)nc2n1C(=O)N(c1ccccc1)C2,-4.149
CS(=O)(=O)NC1CCN(C(=O)c2coc(CN3CCOCC3)c2)CC1,-17.26
CC[C@@H]1N(Cc2ccco2)CCC[C@]12CCC(=O)N2C.O=C(O)C(F)(F)F,-18.94
CC(C)c1cc(NC(=O)CN2CCc3nn(C)c(=O)cc3C2)on1,-6.162
Cc1ccc(OCCCNC(=O)C2(C)CC(=O)N3C=CC=CC3=N2)cc1 (centres unmarked),45.74
O=C(CCNC(=O)NC1CC1)NCc1ccccc1,-2.268
CCc1nnc2n1CCN(C(=O)c1cnc3ccccc3n1)C2,-12.46
CCOc1ccc(N(CCC#N)C(=O)c2ccc(OC)nc2)cc1,-53.27
CN1CCCc2sc(C(=O)NC3CC3)nc21,21.99
CCN1CCC(CC(=O)N2CCN(c3ccccc3OC)CC2C)CC1 (centres unmarked),-12.68
CC(C)OCc1ncn2c1CN(Cc1ccoc1)CCC2.O=C(O)C(F)(F)F,22.79
CN1CCCNC(=O)C12CCN(C(=O)c1ccc3[nH]cnc3c1)CC2,-45.6
CC(=O)N1CCOC(c2nc(N(C)C)ncc2-c2cccc(F)c2)C1 (centres unmarked),4.955
CC1=C(C(N)=O)C(c2cn(C)nc2C)N2C(=O)CSC2=N1 (centres unmarked),2.406
CSCCNC(=O)c1coc(COc2ccc(F)cc2)n1,11.99

4 of the entries, repeated:

CC[C@@H]1N(Cc2ccco2)CCC[C@]12CCC(=O)N2C.O=C(O)C(F)(F)F read -18.94%.
[H][C@]12CN(CC3CC3)C(=O)[C@@]1([H])CN(c1ncccn1)C2 read 13.87%.
[H][C@@]12CN(Cc3cc(C)cc(C)c3)C[C@]1([H])OCCN2S(=O)(=O)N(C)C read 10.46%.
CC(C)(CNC(=O)C(C)(C)c1ccccc1F)C(N)=O read -1.469%.

From ChEMBL document CHEMBL3988442, “University of Dundee, Small-Polar-MMV Screening Library” (2021).